This assay addresses T1, lysine methyltransferase 9 alpha (KMT9α), endogenous (human (endogenous in PC-3M and DU145)) (UniProt Q9Y5N5).
T1 sequence: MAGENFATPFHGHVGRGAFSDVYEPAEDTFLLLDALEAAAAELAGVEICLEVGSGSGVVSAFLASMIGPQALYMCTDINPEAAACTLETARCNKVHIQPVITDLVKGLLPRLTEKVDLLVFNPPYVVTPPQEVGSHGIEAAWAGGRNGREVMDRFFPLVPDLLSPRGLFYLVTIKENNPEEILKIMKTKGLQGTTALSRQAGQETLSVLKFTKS
Put plainly: affinity purification with mass spectrometry; total cell lysate of PC-3M cells, immunoprecipitation with anti-KMT9α, IgG as negative control; on-bead trypsin digest, LC-MS/MS; partners at FDR < 0.05; intersected with human MitoCarta 3.0.

Experimental findings from article PMC11782658 are described below.

These are yes or no findings as the source states them, for the method shown. In cells and extracts the contact can be indirect. Here binding means that the protein was enriched with, or labelled near, the bait; the list need not be complete.

B1: pyruvate dehydrogenase complex component X (PDHX), endogenous (protein, UniProt O00330 54-501)
chain: GDPIKILMPSLSPTMEEGNIVKWLKKEGEAVSAGDALCEIETDKAVVTLDASDDGILAKIVVEEGSKNIRLGSLIGLIVEEGEDWKHVEIPKDVGPPPPVSKPSEPRPSPEPQISIPVKKEHIPGTLRFRLSPAARNILEKHSLDASQGTATGPRGIFTKEDALKLVQLKQTGKITESRPTPAPTATPTAPSPLQATAGPSYPRPVIPPVSTPGQPNAVGTFTEIPASNIRRVIAKRLTESKSTVPHAYATADCDLGAVLKVRQDLVKDDIKVSVNDFIIKAAAVTLKQMPDVNVSWDGEGPKQLPFIDISVAVATDKGLLTPIIKDAAAKGIQEIADSVKALSKKARDGKLLPEEYQGGSFSISNLGMFGIDEFTAVINPPQACILAVGRFRPVLKLTEDEEGNAKLQQRQLITVTMSSDSRVVDDELATRFLKSFKANLENPIRLA
As to B1, the binding entry is “binds”.

B2: pyruvate dehydrogenase E1 subunit PDHB, endogenous (enzyme, UniProt P11177 31-359)
chain: LQVTVRDAINQGMDEELERDEKVFLLGEEVAQYDGAYKVSRGLWKKYGDKRIIDTPISEMGFAGIAVGAAMAGLRPICEFMTFNFSMQAIDQVINSAAKTYYMSGGLQPVPIVFRGPNGASAGVAAQHSQCFAAWYGHCPGLKVVSPWNSEDAKGLIKSAIRDNNPVVVLENELMYGVPFEFPPEAQSKDFLIPIGKAKIERQGTHITVVSHSRPVGHCLEAAAVLSKEGVECEVINMRTIRPMDMETIEASVMKTNHLVTVEGGWPQFGVGAEICARIMEGPAFNFLDAPAVRVTGADVPMPYAKILEDNSIPQVKDIIFAIKKTLNI
In the case of B2, the binding result is reported as “binds”.
